Reference: doi:10.1101/2020.01.03.892703
Results are given in words; binding and its absence hold for the method and conditions named. In cells and extracts the contact can be indirect. Some entries that bind do so weakly or less than the wild type. For part of these data: Tags and fused reporters may be left off the sequences shown.

Amino acid sequences for entries named in this document (tags omitted).
UniProt Q64511: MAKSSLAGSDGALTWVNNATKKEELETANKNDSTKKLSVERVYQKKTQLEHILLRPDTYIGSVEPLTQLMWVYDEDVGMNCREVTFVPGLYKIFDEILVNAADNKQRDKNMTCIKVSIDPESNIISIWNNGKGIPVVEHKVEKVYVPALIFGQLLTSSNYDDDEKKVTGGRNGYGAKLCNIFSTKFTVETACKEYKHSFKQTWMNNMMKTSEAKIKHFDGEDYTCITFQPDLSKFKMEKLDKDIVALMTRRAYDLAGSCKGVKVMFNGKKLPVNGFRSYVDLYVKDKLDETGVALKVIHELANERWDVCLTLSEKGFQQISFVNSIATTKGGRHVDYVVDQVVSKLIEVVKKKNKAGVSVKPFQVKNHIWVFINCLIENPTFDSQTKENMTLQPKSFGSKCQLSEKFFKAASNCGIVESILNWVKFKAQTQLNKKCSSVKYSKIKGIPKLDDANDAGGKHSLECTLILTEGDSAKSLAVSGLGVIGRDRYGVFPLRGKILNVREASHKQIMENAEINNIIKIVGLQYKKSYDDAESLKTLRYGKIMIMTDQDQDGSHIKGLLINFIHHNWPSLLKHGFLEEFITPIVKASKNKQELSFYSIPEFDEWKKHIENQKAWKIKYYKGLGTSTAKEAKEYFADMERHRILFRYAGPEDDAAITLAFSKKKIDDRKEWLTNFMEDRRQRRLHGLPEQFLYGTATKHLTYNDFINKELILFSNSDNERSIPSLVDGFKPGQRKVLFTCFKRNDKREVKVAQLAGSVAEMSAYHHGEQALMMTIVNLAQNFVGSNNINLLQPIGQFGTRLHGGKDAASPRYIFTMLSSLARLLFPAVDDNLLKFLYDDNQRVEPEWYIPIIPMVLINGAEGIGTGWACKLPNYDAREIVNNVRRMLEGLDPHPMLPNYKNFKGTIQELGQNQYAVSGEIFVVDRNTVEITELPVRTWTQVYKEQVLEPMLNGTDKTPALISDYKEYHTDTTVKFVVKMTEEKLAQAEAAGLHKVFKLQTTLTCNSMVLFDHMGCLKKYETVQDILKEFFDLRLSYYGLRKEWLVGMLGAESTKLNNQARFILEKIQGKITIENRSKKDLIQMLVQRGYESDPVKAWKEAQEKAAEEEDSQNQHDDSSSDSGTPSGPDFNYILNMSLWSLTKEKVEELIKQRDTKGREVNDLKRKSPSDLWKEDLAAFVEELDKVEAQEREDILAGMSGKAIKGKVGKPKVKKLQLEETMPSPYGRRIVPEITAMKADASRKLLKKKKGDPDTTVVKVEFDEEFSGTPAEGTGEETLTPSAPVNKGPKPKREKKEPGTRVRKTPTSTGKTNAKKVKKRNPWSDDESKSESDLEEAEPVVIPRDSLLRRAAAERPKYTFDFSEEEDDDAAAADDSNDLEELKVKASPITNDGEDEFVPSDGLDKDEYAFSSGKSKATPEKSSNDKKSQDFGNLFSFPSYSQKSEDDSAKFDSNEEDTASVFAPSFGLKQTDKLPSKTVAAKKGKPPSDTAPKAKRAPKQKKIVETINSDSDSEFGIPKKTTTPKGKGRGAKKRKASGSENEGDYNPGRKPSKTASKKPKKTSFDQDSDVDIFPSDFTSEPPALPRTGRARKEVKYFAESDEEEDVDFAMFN

T1: biotin-tagged XPF (mouse (endogenous knock-in in MEFs)) (UniProt Q9QZD4)
T1 sequence (chain, biotin on the 15 aa tag (by the BirA ligase in vivo)): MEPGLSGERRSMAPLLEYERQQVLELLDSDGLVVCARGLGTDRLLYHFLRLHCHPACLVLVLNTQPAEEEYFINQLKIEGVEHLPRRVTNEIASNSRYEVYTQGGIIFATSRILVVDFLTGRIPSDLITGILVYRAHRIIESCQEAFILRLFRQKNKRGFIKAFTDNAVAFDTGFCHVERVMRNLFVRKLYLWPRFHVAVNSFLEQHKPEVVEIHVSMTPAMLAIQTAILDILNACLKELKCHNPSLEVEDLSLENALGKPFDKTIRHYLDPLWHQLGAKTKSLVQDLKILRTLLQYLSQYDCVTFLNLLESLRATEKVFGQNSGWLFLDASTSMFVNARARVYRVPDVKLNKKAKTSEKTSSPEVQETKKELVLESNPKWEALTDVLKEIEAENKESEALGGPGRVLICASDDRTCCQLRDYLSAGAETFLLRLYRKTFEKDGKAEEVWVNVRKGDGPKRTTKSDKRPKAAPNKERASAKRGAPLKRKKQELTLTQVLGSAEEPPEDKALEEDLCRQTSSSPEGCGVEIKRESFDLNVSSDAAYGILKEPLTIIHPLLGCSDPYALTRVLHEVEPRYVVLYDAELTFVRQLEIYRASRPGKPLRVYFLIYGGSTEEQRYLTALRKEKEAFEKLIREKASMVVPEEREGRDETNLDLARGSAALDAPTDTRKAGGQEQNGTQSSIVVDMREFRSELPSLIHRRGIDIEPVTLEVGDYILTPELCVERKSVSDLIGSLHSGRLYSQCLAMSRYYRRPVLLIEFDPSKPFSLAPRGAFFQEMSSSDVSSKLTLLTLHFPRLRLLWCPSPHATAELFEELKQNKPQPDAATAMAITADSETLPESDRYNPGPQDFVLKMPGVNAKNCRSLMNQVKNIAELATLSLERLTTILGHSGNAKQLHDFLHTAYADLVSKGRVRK

T2: ERCC1 (mouse (endogenous in MEFs)) (UniProt P07903)
T2 sequence: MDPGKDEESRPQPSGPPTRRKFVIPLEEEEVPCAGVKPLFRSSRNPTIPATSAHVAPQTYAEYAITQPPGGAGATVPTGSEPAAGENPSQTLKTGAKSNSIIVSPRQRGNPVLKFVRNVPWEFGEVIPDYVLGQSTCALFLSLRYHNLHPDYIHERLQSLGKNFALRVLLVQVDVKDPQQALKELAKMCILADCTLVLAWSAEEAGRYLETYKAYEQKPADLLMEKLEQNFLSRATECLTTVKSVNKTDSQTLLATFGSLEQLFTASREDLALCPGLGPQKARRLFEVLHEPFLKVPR


How the values were obtained:
[1] = target: T1, biotin-tagged XPF (mouse (endogenous knock-in in MEFs)); assay: pull-down
[2] = target: T2, ERCC1 (mouse (endogenous in MEFs)); assay: co-IP
[3] = target: Topoisomerase IIβ (mouse (endogenous in MEFs)) (UniProt Q64511); assay: co-IP

Row | Binder | binding [1] | binding [2] | binding [3]
1 | CCCTC-binding factor (protein, UniProt Q61164 1-736) MEGEAVEAIVEESETFIKGKERKTYQRRREGGQEEDACHLPQNQTDGGEVVQDVNSSVQMVMMEQLDPTLLQMKTEVMEGTVAPEAEAAVDDTQIITLQVVNMEEQPINIGELQLVQVPVPVTVPVATTSVEELQGAYENEVSKEGLAESEPMICHTLPLPEGFQVVKVGANGEVETLEQGELPPQEDSSWQKDPDYQPPAKKTKKTKKSKLRYTEEGKDVDVSVYDFEEEQQEGLLSEVNAEKVVGNMKPPKPTKIKKKGVKKTFQCELCSYTCPRRSNLDRHMKSHTDERPHKCHLCGRAFRTVTLLRNHLNTHTGTRPHKCPDCDMAFVTSGELVRHRRYKHTHEKPFKCSMCDYASVEVSKLKRHIRSHTGERPFQCSLCSYASRDTYKLKRHMRTHSGEKPYECYICHARFTQSGTMKMHILQKHTENVAKFHCPHCDTVIARKSDLGVHLRKQHSYIEQGKKCRYCDAVFHERYALIQHQKSHKNEKRFKCDQCDYACRQERHMIMHKRTHTGEKPYACSHCDKTFRQKQLLDMHFKRYHDPNFVPAAFVCSKCGKTFTRRNTMARHADNCAGPDGVEGENGGETKKSKRGRKRKMRSKKEDSSDSEENAEPDLDDNEEEEEPAVEIEPEPEPQPQPPPPPQPVAPAPPPAKKRRGRPPGRTNQPKQNQPTAIIQVEDQNTGAIENIIVEVKKEPDAEPAEGEEEEAQAATTDAPNGDLTPEMILSMMDR | binds | binds | binds
2 | ERCC1 (protein, UniProt P07903 1-298) MDPGKDEESRPQPSGPPTRRKFVIPLEEEEVPCAGVKPLFRSSRNPTIPATSAHVAPQTYAEYAITQPPGGAGATVPTGSEPAAGENPSQTLKTGAKSNSIIVSPRQRGNPVLKFVRNVPWEFGEVIPDYVLGQSTCALFLSLRYHNLHPDYIHERLQSLGKNFALRVLLVQVDVKDPQQALKELAKMCILADCTLVLAWSAEEAGRYLETYKAYEQKPADLLMEKLEQNFLSRATECLTTVKSVNKTDSQTLLATFGSLEQLFTASREDLALCPGLGPQKARRLFEVLHEPFLKVPR | binds | – | binds
3 | SMC1A (protein, UniProt Q9CU62 1-1233) MGFLKLIEIENFKSYKGRQIIGPFQRFTAIIGPNGSGKSNLMDAISFVLGEKTSNLRVKTLRDLIHGAPVGKPAANRAFVSMVYSEEGAEDRTFARVIVGGSSEYKINNKVVQLHEYSEELEKLGILIKARNFLVFQGAVESIAMKNPKERTALFEEISRSGELAQEYDKRKKEMVKAEEDTQFNYHRKKNIAAERKEAKQEKEEADRYQRLKDEVVRAQVQLQLFKLYHNEVEIEKLNKELASKNKEIEKDKKRMDKVEDELKEKKKELGKMMREQQQIEKEIKEKDSELNQKRPQYIKAKENTSHKIKKLEAAKKSLQNAQKHYKKRKGDMDELEKEMLSVEKARQEFEERMEEESQSQGRDLTLEENQVKKYHRLKEEASKRAATLAQELEKFNRDQKADQDRLDLEERKKVETEAKIKQKLREIEENQKRIEKLEEYITTSKQSLEEQKKLEGELTEEVEMAKRRIDEINKELNQVMEQLGDARIDRQESSRQQRKAEIMESIKRLYPGSVYGRLIDLCQPTQKKYQIAVTKVLGKNMDAIIVDSEKTGRDCIQYIKEQRGEPETFLPLDYLEVKPTDEKLRELKGAKLVIDVIRYEPPHIKKALQYACGNALVCDNVEDARRIAFGGHQRHKTVALDGTLFQKSGVISGGASDLKAKARRWDEKAVDKLKEKKERLTEELKEQMKAKRKEAELRQVQSQAHGLQMRLKYSQSDLEQTKTRHLALNLQEKSKLESELANFGPRINDIKRIIQSREREMKDLKEKMNQVEDEVFEEFCREIGVRNIREFEEEKVKRQNEIAKKRLEFENQKTRLGIQLDFEKNQLKEDQDKVHMWEQTVKKDENEIEKLKKEEQRHMKIIDETMAQLQDLKNQHLAKKSEVNDKNHEMEEIRKKLGGANKEMTHLQKEVTAIETKLEQKRSDRHNLLQACKMQDIKLPLSKGTMDDISQEEGSSQGEESVSGSQRTSSIYAREALIEIDYGDLCEDLKDAQAEEEIKQEMNTLQQKLNEQQSVLQRIAAPNMKAMEKLESVRDKFQETSDEFEAARKRAKKAKQAFEQIKKERFDRFNACFESVATNIDEIYKALSRNSSAQAFLGPENPEEPYLDGINYNCVAPGKRFRPMDNLSGGEKTVAALALLFAIHSYKPAPFFVLDEIDAALDNTNIGKVANYIKEQSTCNFQAIVISLKEEFYTKAESLIGVYPEQGDCVISKVLTFDLTKYPDANPNPNEQ | binds | binds | binds
4 | TBP (protein, UniProt P29037 1-316) MDQNNSLPPYAQGLASPQGAMTPGIPIFSPMMPYGTGLTPQPIQNTNSLSILEEQQRQQQQQQQQQQQQQAVATAAASVQQSTSQQPTQGASGQTPQLFHSQTLTTAPLPGTTPLYPSPMTPMTPITPATPASESSGIVPQLQNIVSTVNLGCKLDLKTIALRARNAEYNPKRFAAVIMRIREPRTTALIFSSGKMVCTGAKSEEQSRLAARKYARVVQKLGFPAKFLDFKIQNMVGSCDVKFPIRLEGLVLTHQQFSSYEPELFPGLIYRMIKPRIVLLIFVSGKVVLTGAKVRAEIYEAFENIYPILKGFRKTT | binds | – | –
